The text below walks through data of paper PMC11953741.

Protein sequences, listed by entry. Tags and fused reporters are not part of them. Lines headed by an entry give the natural chain unless they say otherwise; changes in a name come on top.
UniProt P33895: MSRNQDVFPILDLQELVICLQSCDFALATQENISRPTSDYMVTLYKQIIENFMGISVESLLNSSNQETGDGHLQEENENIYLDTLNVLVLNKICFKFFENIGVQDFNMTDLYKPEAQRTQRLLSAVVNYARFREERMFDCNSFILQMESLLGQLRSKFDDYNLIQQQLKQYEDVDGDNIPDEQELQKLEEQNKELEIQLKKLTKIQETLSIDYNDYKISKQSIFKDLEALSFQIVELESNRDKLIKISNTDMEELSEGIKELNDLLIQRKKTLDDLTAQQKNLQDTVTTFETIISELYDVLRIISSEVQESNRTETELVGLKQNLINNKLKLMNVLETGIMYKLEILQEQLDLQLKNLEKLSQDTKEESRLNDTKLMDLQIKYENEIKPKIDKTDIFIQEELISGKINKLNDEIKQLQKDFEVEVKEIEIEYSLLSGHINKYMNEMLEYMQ

The target of the assay is T1, Dad1-3Flag (Dam1 complex component Dad1) (S. cerevisiae) (UniProt Q12248).
T1 sequence: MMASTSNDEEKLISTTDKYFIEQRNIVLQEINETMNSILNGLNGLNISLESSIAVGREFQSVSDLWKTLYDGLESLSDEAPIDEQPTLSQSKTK
The experiment in a line: co-IP; Flag immunoprecipitation of Dad1-3Flag from benzonase-treated yeast extracts (anti-Flag M3DK on Protein G Dynabeads, 3 h at 4 °C, Buffer H/0.15 with 150 mM KCl, pH 8.0), eluted with 3x M3DK peptide, silver-stained SDS-PAGE.

Results are given in words; binding and its absence hold for the method and conditions named. In cells and extracts the contact can be indirect. Binding can be weak; no strength is given. Where a sequence is shown, tags or fusion partners need not be part of it.

Take “Nuf2 Q21A-3V5 (S. cerevisiae nuf2^Q21A mutant) (from UniProt P33895)”: the binding entry is given as “binds”.
